# Screen size: about 580,000 compounds; about 6,100 (1.1%) were called active. The inconclusive results got no clear call from the source; some entries with a clear call stand among them for comparison. Calls follow the shape of the dose curve; as a rule, active = well fitted inhibition curve with a large enough effect; inconclusive = small, poorly fitted or top-dose-only effect, or another doubt; inactive = no such curve, though single readings can be large or run the other way. Potencies of inconclusive entries are doubtful fits and often do not repeat.
# Amino acid sequences for entries named in this document (tags omitted). A change or cut given only in a name is not applied to a line headed by its entry.
# UniProt P18054: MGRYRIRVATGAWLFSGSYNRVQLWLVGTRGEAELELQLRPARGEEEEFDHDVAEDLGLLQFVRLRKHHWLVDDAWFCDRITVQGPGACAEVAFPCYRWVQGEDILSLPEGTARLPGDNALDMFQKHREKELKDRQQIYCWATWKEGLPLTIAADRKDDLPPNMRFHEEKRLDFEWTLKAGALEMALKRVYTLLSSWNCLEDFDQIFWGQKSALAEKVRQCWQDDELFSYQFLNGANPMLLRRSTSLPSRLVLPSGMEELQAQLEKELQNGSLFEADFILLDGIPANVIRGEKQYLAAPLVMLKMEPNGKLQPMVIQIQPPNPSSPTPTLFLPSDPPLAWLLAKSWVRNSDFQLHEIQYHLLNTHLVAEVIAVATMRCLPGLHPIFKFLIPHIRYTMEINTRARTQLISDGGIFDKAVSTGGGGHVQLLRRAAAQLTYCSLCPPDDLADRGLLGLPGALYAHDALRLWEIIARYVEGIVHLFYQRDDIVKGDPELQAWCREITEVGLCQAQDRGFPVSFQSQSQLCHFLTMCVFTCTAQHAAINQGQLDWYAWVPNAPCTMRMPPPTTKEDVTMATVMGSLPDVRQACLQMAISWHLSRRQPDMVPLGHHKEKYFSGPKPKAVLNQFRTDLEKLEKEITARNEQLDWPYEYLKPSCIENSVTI
# Target: Polyunsaturated fatty acid lipoxygenase ALOX12 (Homo sapiens) (UniProt P18054)
# Test: Primary qHTS assay for inhibitors of human arachidonate 12S-lipoxygenase (ALOX12): Round 2
# Settings: purified 12hLO, xylenol orange hydroperoxide absorbance; activity change, negative = inhibition: at 108 µM (top of the series) unless noted
# Summary of the method: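 Purified human 12hLO (150 nM final) in 25 mM Hepes, 0.01% Triton X-100, pH 7.0 was preincubated 15 min at room temperature with compound. Then 40 uM arachidonic acid was added, 30 min. Hydroperoxide was read by Fe-XO absorbance ratio 573/405 nm.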
# % is scaled to controls: 0 for no effect and ±100 for the full control effect; potency is read from the fitted curve at half-maximal effect.
SMILES,Potency,"activity change, negative = inhibition"
C=CCc1cc(C=Nc2ccc(N3CCOCC3)cc2)cc(OCC)c1O,"inconclusive: 44.7 µM [inhibitor, partial curve, poor fit]",–
Cc1ccc(C(=O)N(CC(=O)Nc2ccc(Cl)c(Cl)c2)Cc2ccco2)cc1,"inconclusive: 56.2 µM [inhibitor, partial curve, poor fit]",–
O=C(NCC(=O)N1CCN(c2ccccc2O)CC1)c1ccc(Br)o1,"inconclusive: 11.2 µM [inhibitor, partial curve, poor fit]",–
Cc1cc(=Nc2ccccc2)n2ccsc2n1,"inconclusive: 8.91 µM [inhibitor, partial curve, poor fit]",–
CCn1c(C)nc2cc(S(=O)(=O)Nc3ccc(C)cc3)ccc21,"inconclusive: 70.8 µM [inhibitor, partial curve, poor fit]",–
COc1ccc(NC(=O)c2c(NCc3cccc(OC)c3)sc3c2CCCC3)cc1,"inconclusive: 44.7 µM [inhibitor, partial curve, poor fit]",–
O=C(NCCOC(=O)c1ccc(Cl)cc1)c1cccnc1,"inconclusive: 4.47 µM [inhibitor, full curve, poor fit]",–
CN1CCC(Cc2nc(CC3C=CS(=O)(=O)C3)n(CCO)n2)CC1 (stereo not given),"inconclusive: 12.6 µM [inhibitor, full curve]",–
COc1ccccc1CN(C)C[C@H]1OCc2cnnn2CCCC(=O)N([C@@H](C)CO)C[C@@H]1C,"inconclusive: 126 µM [inhibitor, partial curve, poor fit]",–
O=C(CCC1N=C2c3ccccc3N=C(SCc3ccccc3F)N2C1=O)NCc1ccc(F)cc1 (stereo not given),–,inconclusive: -32.2% [inhibitor]
CCC[n+]1c(NCc2cc(Br)cc(Br)c2[O-])[nH]c2ccccc21,"inconclusive: 6.31 µM [inhibitor, full curve, poor fit]",–
CCOC(=O)C(C)c1c(C(=O)c2ccc(C)nc2)c2ccccc2n1C (stereo not given),"inconclusive: 50.1 µM [inhibitor, partial curve, poor fit]",–
Cc1nc(-n2[nH]c3c(c2=O)CCCC3)[nH]c(=O)c1Cc1ccccc1,inactive,–
COc1ccc(-c2onc(C)c2C)cc1S(=O)(=O)NCC1CCN(Cc2cccc(F)c2)CC1,"inconclusive: 50.1 µM [inhibitor, partial curve, poor fit]",–
CCc1ccc(S(=O)(=O)Nc2cc3c(cc2N2CCCCC2)n(C)c(=O)c(=O)n3C)cc1,"inconclusive: 35.5 µM [inhibitor, partial curve, poor fit]",–
CC(C)C(NC(=O)c1ccc2c(c1)NC(=O)CS2)c1cccs1 (stereo not given),inactive,–
O=C(c1ccoc1)N1CCC2(CC1)CN(Cc1ccccc1)CC2CO (stereo not given),inactive,–
Cc1nc(NC(=O)c2ccccc2)sc1-c1csc(NCc2ccccc2)n1,"inconclusive: 35.5 µM [inhibitor, partial curve, poor fit]",–
CC(C)(C)C(=O)NC(=S)Nc1cc(C(F)(F)F)ccc1N1CCOCC1,active: 35.5 µM,–
Cc1cc2nc(-c3ccc(F)cc3)c(CC3CCCCC3)n2c(C)c1Br,"inconclusive: 112 µM [inhibitor, single point]",–

# Sorted by formula weight (smallest number first): some entries from above.
SMILES,Potency,"activity change, negative = inhibition"
CCn1c(C)nc2cc(S(=O)(=O)Nc3ccc(C)cc3)ccc21,"inconclusive: 70.8 µM [inhibitor, partial curve, poor fit]",–
C=CCc1cc(C=Nc2ccc(N3CCOCC3)cc2)cc(OCC)c1O,"inconclusive: 44.7 µM [inhibitor, partial curve, poor fit]",–
O=C(CCC1N=C2c3ccccc3N=C(SCc3ccccc3F)N2C1=O)NCc1ccc(F)cc1 (stereo not given),–,inconclusive: -32.2% [inhibitor]

# (continued)

SMILES,Potency,"activity change, negative = inhibition"
Cc1nn(C)cc1-c1n[nH]c(=S)n1-c1ccc(Cl)cc1,"inconclusive: 56.2 µM [inhibitor, partial curve, poor fit]",–
O=C(Cn1cc(S(=O)(=O)Cc2ccc([N+](=O)[O-])cc2)c2ccccc21)N1CCOCC1,"inconclusive: 22.4 µM [inhibitor, partial curve, poor fit]",–
O=C1CO[C@H]2CCN(Cc3ccc4[nH]ccc4c3)CC[C@@H]2N1Cc1ccc(O)cc1,"inconclusive: 56.2 µM [inhibitor, full curve]",–
O=C(NCCC(c1ccccc1)c1ccccc1)NNc1cnccn1,"inconclusive: 50.1 µM [inhibitor, partial curve, poor fit]",–
CN(C)c1ccc(CN[C@H]2CO[C@H]3[C@@H]2OC[C@H]3OC(=O)Nc2ccc(Oc3ccccc3)cc2)cc1,"inconclusive: 56.2 µM [inhibitor, partial curve]",–
CC1=C(c2ccccc2)Oc2ccccc2C1c1ccc(C)cc1 (stereo not given),"inconclusive: 35.5 µM [inhibitor, partial curve, poor fit]",–
COc1cc(/C=N/NC(=O)CCOc2ccccc2C)cc(Br)c1O,"inconclusive: 89.1 µM [inhibitor, partial curve, poor fit]",–
COC1=C/C(=C/c2c(O)c(C#N)c3ccccn23)C=CC1=O,"inconclusive: 20 µM [inhibitor, partial curve, poor fit]",–
O=C(C[C@@H]1O[C@H](CNS(=O)(=O)c2ccc(Cl)cc2)[C@@H](O)[C@H]1O)N1CCN(c2ccc(F)cc2)CC1,"inconclusive: 15.8 µM [inhibitor, full curve]",–
CCn1nc(C(=O)Nc2cc(Cl)ccc2N2CCCCC2)c2ccccc2c1=O,inactive,–
O=C(CSc1ccc2c(c1)OCCO2)Nc1ncc(Cl)cc1Cl,"inconclusive: 50.1 µM [inhibitor, partial curve, poor fit]",–
CC(=O)N(/N=C/c1cccc(C)c1)c1nc(-c2ccc(Br)cc2)cs1,inactive,–
Cc1cc(C)n2cc(CSc3nncn3C)nc2n1,"inconclusive: 4.47 µM [inhibitor, full curve, poor fit]",–
COc1ccc(NC(=O)N2CCC3(CC2)CC(OCC2CC2)CCO3)cc1 (stereo not given),inactive,–
COc1ccccc1C(C)NCC(=O)NCC(=O)Nc1ccc(F)c(F)c1F (stereo not given),inactive,–
CCN(CC)C(=O)CN1CCN(c2nc(C)c3c(c2C#N)CC(C)(C)OC3)CC1,inactive,–
Cc1ccc(OCc2n[nH]c(=S)n2-c2ccc(C)cc2)cc1,"inconclusive: 17.8 µM [inhibitor, partial curve]",–
c1ccc(CCc2nn3c(Cc4ccccc4)nnc3s2)cc1,"inconclusive: 39.8 µM [inhibitor, partial curve, poor fit]",–
CCOC(=O)c1cc2n(n1)CC(C)(C(=O)NC1CCCC1)N(CCc1cccs1)C2=O (stereo not given),inactive,–
O=C(NNC(=O)c1ccccc1O)c1ccc(Cl)c(S(=O)(=O)N2CCCCC2)c1,"inconclusive: 28.2 µM [inhibitor, single point]",–

# Source: PubChem BioAssay AID1671190 (National Center for Advancing Translational Sciences (NCATS), 2021)
